Literature values in patent publication EP2514430B1, “METHOD AND APPARATUS FOR SIMULTANEOUSLY MANUFACTURING ULTRA PURE BETULIN AND HIGHLY PURE BETULINIC ACID FROM BIRCH BARK” (Korea Institute of Energy Research, priority 2009, dated 2011).
At least one compound was matched to its structure with a doubt left.

Tested on: melanomas (for example, MEL-2 and MEL-4)
Conditions: Pisha et al. 1995; cited from earlier work

C=C(C)[C@@H]1CC[C@]2(C(=O)O)CC[C@]3(C)[C@H](CC[C@@H]4[C@@]5(C)CC[C@H](O)C(C)(C)[C@@H]5CC[C@]43C)[C@@H]12 [betulinic acid]
antitumor activity to melanomas: antitumor activity
